Source: EP0357332A2, “Renin inhibitors useful for the treatment of aids by inhibition of HIV protease” (MERCK & CO. INC., priority 1988, dated 1990)
Not every detail of the peptide structures is certain; ends, links or a residue may be inferred.

Legend:
HIV protease = target: T1, HIV protease (Human immunodeficiency virus type 1 group M subtype B, UniProt P12497); test: Assay for inhibition of recombinant HIV protease with recombinant gag p55 substrate (SDS-PAGE, immunoblot); type: biochemical, HIV virus (NY5 isolate); details: 1 µM inhibitor; 37°C for 1 hr; pH 5.5
T1 construct: the HIV protease was expressed in Saccharomyces cerevisae cells by recombinant DNA methods using a gene fusion of the filled in NlaIV to Bal I fragment; alpha mating factor leader (expression vector pJC197) (N); made in house; host or cells: Saccharomyces cerevisiae (crude cell extract)

[1] = test system: H9 T-lymphoid cells persistently infected with the HTLV-IIIB isolate of the human immunodeficiency virus (HIV); test: Effect on HIV gag protein processing in persistently infected H9 cells (35S-met pulse-chase, immunoprecipitation); type: cell-based; details: 50 mcM
HTLV-IIIB isolate of HIV = test: Effect on HIV spread in MT-4 cell culture (immunofluorescence); type: cell-based; details: About 25.0 mcM; MT-4 cells; MOI 0.001; 96 hrs; untreated infected cultures >90%

For `CC(C)C[C@H](NC(=O)C(Cc1ccccc1)C[C@H](O)[C@H](Cc1ccccc1)NC(=O)[C@H](Cc1ccccc1)NC(=O)[C@H](Cc1ccccc1)NC(=O)OC(C)(C)C)C(=O)N[C@@H](Cc1ccccc1)C(N)=O` (single isomer, unassigned) [Compound B, N′-(1,1-Dimethylethoxycarbonyl)-Phe-Phe-5(S)-Amino-4(S)-Hydroxy-6-Phenyl-2(S or R)-(Phenylmethyl)Hexanoyl-Leu-Phe-Amide], the “processing of gag p55 to gag p17 and gag p24” value (HIV protease) was “appeared as the no enzyme control with unprocessed gag 55 and the absence of the gag 17 and gag 24 bands”, the “HIV gag protein processing in cells” value ([1]; 16 hours preincubation, 8 hrs chase, cell samples) was “accumulation of the p55 gag precursor, as well as two processing intermediates of 49 and 41 kDa, relative to the p24 product” and the “gag proteins in newly budded virions” value ([1]; immunoprecipitation from the culture medium supernatants) was “These processing intermediates and p55 were incorporated into newly budded virions”. The “level of fluorescing cells” value (HTLV-IIIB isolate of HIV) was 20%.
